{
  "sequences": {"note": "Protein sequences, listed by entry. Tags and fused reporters are not part of them. Residues count along the entry.", "UniProt O08852, residues 24-4293": "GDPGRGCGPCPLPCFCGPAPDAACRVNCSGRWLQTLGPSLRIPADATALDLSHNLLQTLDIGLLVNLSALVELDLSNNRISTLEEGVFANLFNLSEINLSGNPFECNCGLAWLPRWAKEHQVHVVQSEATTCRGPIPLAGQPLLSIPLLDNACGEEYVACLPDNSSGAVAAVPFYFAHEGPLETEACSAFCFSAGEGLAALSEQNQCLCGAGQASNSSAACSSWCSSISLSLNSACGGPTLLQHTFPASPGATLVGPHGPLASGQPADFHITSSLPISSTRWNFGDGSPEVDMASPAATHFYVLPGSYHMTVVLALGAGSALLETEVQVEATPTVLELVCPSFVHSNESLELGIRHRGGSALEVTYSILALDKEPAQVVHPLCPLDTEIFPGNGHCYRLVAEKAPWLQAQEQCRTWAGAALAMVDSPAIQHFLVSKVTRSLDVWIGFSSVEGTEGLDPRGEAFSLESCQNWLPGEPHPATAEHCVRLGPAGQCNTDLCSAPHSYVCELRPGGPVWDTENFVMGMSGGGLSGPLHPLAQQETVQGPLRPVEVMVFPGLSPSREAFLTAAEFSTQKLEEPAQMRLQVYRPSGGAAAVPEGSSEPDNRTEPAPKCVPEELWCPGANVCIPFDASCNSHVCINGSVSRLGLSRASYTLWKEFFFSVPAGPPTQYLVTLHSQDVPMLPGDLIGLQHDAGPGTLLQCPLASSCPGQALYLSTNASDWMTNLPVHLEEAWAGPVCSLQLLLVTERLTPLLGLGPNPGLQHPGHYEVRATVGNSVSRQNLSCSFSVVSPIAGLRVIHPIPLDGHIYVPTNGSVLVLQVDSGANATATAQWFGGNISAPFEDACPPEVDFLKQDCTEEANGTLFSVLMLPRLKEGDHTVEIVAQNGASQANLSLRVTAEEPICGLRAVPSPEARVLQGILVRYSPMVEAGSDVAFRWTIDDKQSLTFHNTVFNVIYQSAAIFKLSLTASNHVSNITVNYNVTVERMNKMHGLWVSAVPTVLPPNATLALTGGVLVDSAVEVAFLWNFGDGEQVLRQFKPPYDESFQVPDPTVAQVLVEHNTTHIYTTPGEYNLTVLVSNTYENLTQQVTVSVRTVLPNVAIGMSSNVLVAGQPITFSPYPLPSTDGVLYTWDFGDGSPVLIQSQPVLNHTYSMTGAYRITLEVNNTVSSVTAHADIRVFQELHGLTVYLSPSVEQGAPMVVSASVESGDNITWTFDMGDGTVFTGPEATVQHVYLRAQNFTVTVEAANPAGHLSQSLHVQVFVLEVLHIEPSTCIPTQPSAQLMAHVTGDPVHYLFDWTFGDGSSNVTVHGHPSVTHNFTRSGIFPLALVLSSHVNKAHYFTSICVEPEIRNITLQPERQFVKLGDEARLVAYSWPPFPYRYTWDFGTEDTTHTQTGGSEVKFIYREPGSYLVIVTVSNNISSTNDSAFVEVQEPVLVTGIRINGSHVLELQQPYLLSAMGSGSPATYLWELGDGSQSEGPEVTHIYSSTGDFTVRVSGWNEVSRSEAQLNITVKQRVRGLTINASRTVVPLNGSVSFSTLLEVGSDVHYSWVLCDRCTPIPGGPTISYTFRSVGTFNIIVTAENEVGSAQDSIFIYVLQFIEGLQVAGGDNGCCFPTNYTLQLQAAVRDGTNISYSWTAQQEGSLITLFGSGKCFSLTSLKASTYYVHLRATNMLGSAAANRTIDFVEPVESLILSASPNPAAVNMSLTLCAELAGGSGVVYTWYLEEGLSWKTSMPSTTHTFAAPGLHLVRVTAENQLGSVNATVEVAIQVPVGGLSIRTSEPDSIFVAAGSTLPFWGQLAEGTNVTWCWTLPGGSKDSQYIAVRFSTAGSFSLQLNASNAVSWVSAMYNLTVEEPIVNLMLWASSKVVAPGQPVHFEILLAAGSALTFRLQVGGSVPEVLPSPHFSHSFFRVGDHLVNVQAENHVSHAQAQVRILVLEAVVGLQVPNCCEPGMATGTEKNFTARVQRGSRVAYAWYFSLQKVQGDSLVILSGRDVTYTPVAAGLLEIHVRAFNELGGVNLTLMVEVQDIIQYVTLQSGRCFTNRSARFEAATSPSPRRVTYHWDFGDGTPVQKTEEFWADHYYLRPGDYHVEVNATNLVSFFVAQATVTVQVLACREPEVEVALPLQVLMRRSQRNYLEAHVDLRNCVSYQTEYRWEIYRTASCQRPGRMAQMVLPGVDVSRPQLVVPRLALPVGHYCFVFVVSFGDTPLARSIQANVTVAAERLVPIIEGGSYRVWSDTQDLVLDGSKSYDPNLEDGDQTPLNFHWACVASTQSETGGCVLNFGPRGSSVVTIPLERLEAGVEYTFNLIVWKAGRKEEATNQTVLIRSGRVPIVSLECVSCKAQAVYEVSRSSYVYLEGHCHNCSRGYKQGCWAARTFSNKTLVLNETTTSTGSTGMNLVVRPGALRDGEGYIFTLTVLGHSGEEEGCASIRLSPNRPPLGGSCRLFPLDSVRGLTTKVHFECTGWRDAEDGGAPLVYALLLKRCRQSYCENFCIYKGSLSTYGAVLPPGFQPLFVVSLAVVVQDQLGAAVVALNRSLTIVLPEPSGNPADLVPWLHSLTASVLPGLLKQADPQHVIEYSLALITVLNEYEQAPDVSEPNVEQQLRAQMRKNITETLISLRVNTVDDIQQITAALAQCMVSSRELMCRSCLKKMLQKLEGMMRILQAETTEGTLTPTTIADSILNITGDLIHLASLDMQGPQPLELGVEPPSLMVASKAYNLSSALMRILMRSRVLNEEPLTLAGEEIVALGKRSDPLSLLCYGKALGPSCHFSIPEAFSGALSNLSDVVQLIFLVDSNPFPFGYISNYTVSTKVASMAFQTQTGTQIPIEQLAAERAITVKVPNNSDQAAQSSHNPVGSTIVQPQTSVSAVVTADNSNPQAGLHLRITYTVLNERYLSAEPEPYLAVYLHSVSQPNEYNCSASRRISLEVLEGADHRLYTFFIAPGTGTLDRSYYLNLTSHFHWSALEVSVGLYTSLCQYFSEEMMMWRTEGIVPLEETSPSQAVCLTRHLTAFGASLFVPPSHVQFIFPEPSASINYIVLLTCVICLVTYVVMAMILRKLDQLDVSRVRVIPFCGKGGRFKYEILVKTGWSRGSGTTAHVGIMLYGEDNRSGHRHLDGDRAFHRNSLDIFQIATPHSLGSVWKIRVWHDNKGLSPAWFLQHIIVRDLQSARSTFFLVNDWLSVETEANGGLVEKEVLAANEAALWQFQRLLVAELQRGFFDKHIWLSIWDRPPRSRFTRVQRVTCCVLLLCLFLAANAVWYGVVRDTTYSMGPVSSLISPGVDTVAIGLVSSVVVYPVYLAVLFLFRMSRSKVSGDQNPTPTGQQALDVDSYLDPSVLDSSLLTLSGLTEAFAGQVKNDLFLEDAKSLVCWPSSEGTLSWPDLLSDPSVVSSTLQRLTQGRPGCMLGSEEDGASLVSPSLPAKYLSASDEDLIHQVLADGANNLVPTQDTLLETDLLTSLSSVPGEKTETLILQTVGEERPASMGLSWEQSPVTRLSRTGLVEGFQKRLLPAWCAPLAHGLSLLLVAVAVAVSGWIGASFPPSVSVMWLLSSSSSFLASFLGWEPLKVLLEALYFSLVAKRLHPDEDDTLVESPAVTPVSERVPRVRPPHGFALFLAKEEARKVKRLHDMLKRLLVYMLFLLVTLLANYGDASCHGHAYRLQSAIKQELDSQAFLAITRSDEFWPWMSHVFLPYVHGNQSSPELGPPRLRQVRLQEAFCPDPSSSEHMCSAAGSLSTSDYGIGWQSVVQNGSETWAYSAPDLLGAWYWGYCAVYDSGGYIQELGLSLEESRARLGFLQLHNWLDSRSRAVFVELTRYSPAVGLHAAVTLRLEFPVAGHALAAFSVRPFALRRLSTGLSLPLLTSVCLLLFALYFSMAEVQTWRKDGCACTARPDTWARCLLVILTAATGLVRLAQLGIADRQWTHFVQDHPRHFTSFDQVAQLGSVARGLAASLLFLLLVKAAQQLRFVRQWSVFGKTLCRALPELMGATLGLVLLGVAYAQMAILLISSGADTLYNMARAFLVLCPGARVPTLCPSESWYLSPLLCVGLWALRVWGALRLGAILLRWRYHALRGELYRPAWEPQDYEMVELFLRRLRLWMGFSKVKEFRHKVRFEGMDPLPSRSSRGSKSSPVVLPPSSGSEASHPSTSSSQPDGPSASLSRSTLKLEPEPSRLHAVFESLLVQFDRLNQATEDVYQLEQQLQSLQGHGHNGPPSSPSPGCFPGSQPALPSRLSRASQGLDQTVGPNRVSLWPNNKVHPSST"},
  "source": "paper doi:10.1101/2022.04.08.487705",
  "target": "tagged polycystin-1 (PC1-eGFP), product of the Pkd1^eGFP knock-in allele (mouse) (UniProt O08852)",
  "test": "co-IP",
  "note": "Results are given in words; binding and its absence hold for the method and conditions named. In cells and extracts the contact can be indirect. Some results given as binding are weak or reduced against the parent protein; the word gives no strength.",
  "data": [
    {"binder": "Polycystin-2 (protein, UniProt O35245 1-966) MVNSRRVQPQPPGDAGRSPAPRASGPGRLVAGGAGLAVPGGLGEQRGLEIEMERIRQAAARDPPAGASASPSPPLSSCSRQAWSRDNPGFEAEEDDDDDEVEGEEGGMVVEMDVEWRPGSRRSASSSAVSSVGARGRGLGSYRGAAHLSGRRRRLEDQGAQCPSPAGGGDPLHRHLPLEGQPPRVAWAERLVRGLRGLWGTRLMEESNANREKYLKSVLRELVTYLFFLVVLCILTYGMMSSNVYYYTRTLSQLFIDTPVSKTEKTNFKTLSSMEDFWKFTEGSFLDGLYWKAQTSNHTQADNRSFIFYENLLLGVPRLRQLRVRNGSCSIPQDLRDEIKECYDVYSVSSEDRAPFGPRNGTAWMYTSEKELNGSSHWGIIASYSGAGYYLDLSRTREETAAQLAGLRRNFWLDRGTRAAFIDFSVYNANINLFCVVRLLAEFPATGGVVPSWQFQPVKLIRYVTAFDFFLAACEIIFCFFIIYYVVEEILEIRIHRLSYFRSFWNCLDVVIVVLSVVAMVINIYRMSNAEGLLQFLEDQNSFPNFEHVAYWQIQFNNISAVMVFLVWIKLFKFINFNRTMSQLSTTMSRCAKDLFGFTIMFSIIFLAYAQLAYLVFGTQVDDFSTFQECIFTQFRIILGDINFAEIEEANRVLGPLYFTTFVFFMFFILLNMFLAIINDSYSEVKSDLAQQKAEMELSDLIRKGCQKALVKLKLKRNTVDAISESLRQGGGKLNFDELRQDLKGKGHTDAEIEAIFTKYDQDGDQELTEREHQQMRDDLEKEREDLDLEHSSLPRPMSSRSFPRSLDDSEEEDDEDSGHSSRRRGSISSGVSYEEFQVLVRRVDRMEHSIGSIVSKIDAVIVKLEIMERAKLKRREVLGRLLDGVAEDARLGRDSEIHREQMERLVREELERWESDDAASQTGHGVSTQVGLGGQPHPRNPRPPSSQSAEGLEGGGGNGSANVHA", "values": [
      {"measurement": "binding", "result": "binds"}
    ]},
    {"binder": "nicotinamide nucleotide transhydrogenase (Nnt) (protein, UniProt Q61941 44-1086) CKSPVKPGIPYKQLTVGVPKEIFQNEKRVALSPAGVQALVKQGFNVVVESGAGEASKFPDDLYRAAGAQIQGMKEVLASDLVVKVRAPMVNPTLGAHEADFLKPSGTLISFIYPAQNPDLLNKLSERKTTVLAMDQVPRVTIAQGYDALSSMANISGYKAVVLAANHFGRFFTGQITAAGKVPPAKILIVGGGVAGLASAGAAKSMGAVVRGFDTRAAALEQFKSLGAEPLEVDLKESGEGQGGYAKEMSKEFIEAEMKLFAQQCKEVDILISTALIPGKKAPVLFSKEMIESMKEGSVVVDLAAEAGGNFETTKPGELYVHKGITHIGYTDLPSRMATQASTLYSNNITKLLKAISPDKDNFHFEVKDDFDFGTMSHVIRGTVVMKDGKVIFPAPTPKNIPEEAPVKPKTVAELEAEKAGTVSMYTKTLTTASVYSAGLTGMLGLGIVAPNVAFSQMVTTFGLAGIIGYHTVWGVTPALHSPLMSVTNAISGLTAVGGLALMGGHFYPSTTSQSLAALATFISSVNIAGGFLVTQRMLDMFKRPTDPPEYNYLYLLPGGTFVGGYLAALYGGYNIEEIMYLGSGLCCVGALGGLSTQGTARLGNALGMIGVAGGLAATLGGLKPDPQLLAQMSGAMAMGGTIGLTIAKRIQISDLPQLVAAFHSLVGLAAVLTCMAEYIVEYPHFAMDATSNFTKIVAYLGTYIGGVTFSGSLVAYGKLQGILKSAPLLLPGRHALNAGLLAASVGGIIPFMADPSFTTGITCLGSVSGLSTLMGVTLTAAIGGADMPVVITVLNSYSGWALCAEGFLLNNNLLTIVGALIGSSGAILSYIMCVAMNRSLANVILGGYGTTSTAGGKPMEISGTHTEINLDNAVEMIREANSIVITPGYGLCAAKAQYPIADLVKMLTEQGKKVRFGIHPVAGRMPGQLNVLLAEAGVPYDIVLEMDEINSDFPDTDLVLVIGANDTVNSAAQEDPNSIIAGMPVLEVWKSKQVIVMKRSLGVGYAAVDNPIFYKPNTAMLLGDAKKTCDALQAKVRESYQK", "values": [
      {"measurement": "binding", "result": "binds"}
    ]}
  ]
}
